Reference: article PMC6678468

Target: T1, PEX19 (human (endogenous in U251)) (UniProt P40855)
T1 sequence: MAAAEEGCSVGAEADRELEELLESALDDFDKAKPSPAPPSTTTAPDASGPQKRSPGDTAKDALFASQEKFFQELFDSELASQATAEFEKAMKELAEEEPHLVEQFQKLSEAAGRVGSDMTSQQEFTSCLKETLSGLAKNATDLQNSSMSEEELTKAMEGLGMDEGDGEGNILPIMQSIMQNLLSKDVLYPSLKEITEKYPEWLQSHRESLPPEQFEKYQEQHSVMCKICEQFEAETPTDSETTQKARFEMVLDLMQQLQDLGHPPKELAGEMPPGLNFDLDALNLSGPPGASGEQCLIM
Experiment: co-IP; lysates of U251 cells infected with ZIKV PRVABC59 (MOI = 1, 48 h); NP-40 lysis buffer (150 mM NaCl, 2 mM EDTA, 1% NP-40, 50 mM Tris-HCl pH 7.4, 1 mM DTT); treated with 20 ug/mL RNase A; IP with rabbit anti-ZIKV capsid or rabbit anti-PEX19 (rabbit IgG as negative control), protein G-Sepharose, 4 °C; immunoblot for PEX19 or ZIKV capsid

Question: How did the binding turn out when “ZIKV capsid protein (strain PRVABC59) (Zika virus (strain PRVABC59))” was run?
Answer: Its binding is “binds”.

No constants are given. Whether binding was seen depends on the method and setting. In cells and extracts the contact can be indirect. Binding calls can cover weak binding; strength is not graded here.
